No constants are given. Whether binding was seen depends on the method and setting.
Tests used:
[1] = molecular target: streptolysin O (Streptococcus pyogenes (group A Streptococcus), strain 854) (UniProt P0C0I3); test: SEC-MALS; […]; PBS, 1 mM DTT, pH 7.4; room temperature; both purified
[2] = molecular target: streptolysin O (Streptococcus pyogenes (group A Streptococcus), strain 854) (UniProt P0C0I3); test: cross-linking; […], room temperature; […], pH 7.4; […]; both purified

Protein sequences, listed by entry. Tags and fused reporters are not part of them. Residues count along the entry.
UniProt P0C0I3, residues 34-571: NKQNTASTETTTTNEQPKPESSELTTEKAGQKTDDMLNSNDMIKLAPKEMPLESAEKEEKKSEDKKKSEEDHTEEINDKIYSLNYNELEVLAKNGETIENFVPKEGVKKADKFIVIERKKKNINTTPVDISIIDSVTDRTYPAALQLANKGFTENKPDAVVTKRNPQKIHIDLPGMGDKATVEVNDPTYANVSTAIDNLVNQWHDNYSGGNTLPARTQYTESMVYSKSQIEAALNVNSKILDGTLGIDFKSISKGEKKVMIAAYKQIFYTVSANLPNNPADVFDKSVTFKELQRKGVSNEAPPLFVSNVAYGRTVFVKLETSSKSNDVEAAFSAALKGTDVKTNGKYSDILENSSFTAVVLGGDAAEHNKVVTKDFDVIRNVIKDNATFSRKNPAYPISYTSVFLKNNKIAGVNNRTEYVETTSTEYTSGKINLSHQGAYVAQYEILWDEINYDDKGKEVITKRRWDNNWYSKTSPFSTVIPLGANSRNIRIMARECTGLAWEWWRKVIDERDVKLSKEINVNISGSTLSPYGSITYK

## streptolysin O (from UniProt P0C0I3 34-571)
[1]
  binding: no binding (tested: 25 μM)
[2]
  binding: no binding (tested: 12 μM)

— PMC5596348
